Measured values: the supplement of paper PMC10849652
The list shows a part of the results.

The chains behind the UniProt entries cited, without tags or fusion partners. Where a name states a change or a piece, a line headed by the entry shows the natural chain unless it says otherwise.
UniProt Q9Y250: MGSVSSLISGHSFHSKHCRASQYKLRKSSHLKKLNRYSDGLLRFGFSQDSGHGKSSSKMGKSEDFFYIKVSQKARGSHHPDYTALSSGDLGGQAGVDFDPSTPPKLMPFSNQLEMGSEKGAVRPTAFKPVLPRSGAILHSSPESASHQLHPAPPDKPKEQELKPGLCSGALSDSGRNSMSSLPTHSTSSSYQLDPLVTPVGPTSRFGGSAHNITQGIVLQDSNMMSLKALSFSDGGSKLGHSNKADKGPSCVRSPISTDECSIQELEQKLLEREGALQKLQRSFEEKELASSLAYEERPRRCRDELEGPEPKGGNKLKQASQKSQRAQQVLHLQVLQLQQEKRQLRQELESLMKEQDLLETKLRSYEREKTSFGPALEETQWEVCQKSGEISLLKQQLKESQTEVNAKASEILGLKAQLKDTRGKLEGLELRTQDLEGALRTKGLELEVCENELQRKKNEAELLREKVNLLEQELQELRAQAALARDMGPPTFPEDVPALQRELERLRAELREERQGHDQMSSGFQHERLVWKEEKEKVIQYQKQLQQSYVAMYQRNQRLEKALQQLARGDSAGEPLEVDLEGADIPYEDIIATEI
UniProt P49006: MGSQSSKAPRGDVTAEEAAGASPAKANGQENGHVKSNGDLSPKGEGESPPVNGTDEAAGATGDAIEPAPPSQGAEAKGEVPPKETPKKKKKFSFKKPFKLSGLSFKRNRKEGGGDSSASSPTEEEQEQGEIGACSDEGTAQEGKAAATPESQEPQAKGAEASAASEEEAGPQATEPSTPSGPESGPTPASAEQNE
UniProt O60732: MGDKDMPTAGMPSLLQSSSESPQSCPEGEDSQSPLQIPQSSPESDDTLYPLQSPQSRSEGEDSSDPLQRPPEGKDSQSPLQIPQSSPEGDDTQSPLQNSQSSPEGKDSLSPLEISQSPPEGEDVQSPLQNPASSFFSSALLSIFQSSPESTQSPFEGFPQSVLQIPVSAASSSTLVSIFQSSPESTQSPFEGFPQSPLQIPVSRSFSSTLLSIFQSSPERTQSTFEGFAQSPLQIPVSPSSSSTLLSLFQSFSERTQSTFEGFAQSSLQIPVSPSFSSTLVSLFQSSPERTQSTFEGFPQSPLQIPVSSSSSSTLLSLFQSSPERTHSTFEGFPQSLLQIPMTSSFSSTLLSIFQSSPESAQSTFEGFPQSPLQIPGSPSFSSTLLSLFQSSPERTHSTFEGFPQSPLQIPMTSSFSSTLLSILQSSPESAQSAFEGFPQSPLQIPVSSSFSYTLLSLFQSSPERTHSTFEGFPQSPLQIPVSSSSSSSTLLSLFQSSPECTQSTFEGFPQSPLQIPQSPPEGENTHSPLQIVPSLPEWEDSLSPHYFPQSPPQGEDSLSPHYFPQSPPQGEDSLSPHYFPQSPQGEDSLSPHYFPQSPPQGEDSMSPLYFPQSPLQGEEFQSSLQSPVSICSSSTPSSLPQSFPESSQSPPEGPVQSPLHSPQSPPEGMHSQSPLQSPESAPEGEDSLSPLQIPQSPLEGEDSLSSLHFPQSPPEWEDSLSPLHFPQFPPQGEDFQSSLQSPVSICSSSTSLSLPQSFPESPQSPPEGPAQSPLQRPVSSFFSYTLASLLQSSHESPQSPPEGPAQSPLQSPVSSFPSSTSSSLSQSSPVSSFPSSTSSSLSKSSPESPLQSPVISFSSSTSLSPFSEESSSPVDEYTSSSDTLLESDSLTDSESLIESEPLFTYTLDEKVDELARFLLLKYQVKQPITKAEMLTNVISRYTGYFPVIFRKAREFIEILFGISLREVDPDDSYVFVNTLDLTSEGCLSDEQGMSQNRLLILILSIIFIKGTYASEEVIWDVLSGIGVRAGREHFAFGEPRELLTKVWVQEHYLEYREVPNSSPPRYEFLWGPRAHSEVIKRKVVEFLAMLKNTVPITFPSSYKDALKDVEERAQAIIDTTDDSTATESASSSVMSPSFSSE
UniProt O00754: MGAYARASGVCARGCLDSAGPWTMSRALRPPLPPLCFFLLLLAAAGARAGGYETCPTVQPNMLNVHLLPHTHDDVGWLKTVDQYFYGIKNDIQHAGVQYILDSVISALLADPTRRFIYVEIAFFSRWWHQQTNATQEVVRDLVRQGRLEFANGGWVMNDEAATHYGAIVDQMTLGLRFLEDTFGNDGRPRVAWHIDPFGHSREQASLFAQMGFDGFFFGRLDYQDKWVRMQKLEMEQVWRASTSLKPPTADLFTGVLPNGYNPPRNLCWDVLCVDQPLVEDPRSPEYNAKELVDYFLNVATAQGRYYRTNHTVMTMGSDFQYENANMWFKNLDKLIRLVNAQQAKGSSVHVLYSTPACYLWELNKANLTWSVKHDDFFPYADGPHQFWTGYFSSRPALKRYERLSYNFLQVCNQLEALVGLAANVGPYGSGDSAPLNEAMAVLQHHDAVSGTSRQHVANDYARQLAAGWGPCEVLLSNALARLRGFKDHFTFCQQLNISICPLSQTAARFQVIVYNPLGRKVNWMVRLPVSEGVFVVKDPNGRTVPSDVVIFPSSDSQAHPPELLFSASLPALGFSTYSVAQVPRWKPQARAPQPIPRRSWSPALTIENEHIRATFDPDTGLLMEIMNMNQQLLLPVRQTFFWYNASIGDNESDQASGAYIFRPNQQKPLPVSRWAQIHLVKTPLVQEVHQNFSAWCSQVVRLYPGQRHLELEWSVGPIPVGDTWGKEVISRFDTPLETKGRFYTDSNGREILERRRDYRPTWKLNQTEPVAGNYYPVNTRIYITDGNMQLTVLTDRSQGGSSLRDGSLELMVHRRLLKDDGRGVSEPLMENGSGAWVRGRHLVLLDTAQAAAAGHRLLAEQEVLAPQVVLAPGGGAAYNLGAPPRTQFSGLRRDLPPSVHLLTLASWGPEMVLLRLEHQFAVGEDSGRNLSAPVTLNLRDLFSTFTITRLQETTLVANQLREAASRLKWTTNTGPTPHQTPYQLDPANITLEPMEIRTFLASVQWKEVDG
UniProt O00462: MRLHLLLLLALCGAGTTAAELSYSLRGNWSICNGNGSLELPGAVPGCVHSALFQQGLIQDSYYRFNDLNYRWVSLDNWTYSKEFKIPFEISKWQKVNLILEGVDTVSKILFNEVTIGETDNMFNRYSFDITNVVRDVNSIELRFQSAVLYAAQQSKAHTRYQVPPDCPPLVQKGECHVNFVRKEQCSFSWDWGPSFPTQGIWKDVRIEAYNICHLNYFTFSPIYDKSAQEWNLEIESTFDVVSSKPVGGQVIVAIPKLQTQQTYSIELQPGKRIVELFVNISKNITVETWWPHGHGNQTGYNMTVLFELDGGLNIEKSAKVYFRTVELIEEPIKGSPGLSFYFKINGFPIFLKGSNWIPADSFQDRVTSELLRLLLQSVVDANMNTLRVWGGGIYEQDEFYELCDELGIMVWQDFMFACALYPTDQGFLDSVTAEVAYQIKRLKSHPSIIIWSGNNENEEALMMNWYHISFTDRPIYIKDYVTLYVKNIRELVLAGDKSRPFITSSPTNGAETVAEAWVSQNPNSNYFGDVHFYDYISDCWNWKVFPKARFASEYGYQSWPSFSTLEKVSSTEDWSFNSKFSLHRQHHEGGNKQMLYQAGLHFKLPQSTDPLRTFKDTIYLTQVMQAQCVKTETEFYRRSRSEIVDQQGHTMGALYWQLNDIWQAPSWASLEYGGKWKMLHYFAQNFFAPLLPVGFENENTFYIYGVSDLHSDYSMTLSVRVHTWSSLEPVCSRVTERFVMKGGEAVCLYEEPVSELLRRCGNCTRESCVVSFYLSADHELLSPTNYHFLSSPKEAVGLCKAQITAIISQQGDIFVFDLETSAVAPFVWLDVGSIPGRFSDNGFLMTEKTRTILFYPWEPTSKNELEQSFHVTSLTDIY
UniProt P55145: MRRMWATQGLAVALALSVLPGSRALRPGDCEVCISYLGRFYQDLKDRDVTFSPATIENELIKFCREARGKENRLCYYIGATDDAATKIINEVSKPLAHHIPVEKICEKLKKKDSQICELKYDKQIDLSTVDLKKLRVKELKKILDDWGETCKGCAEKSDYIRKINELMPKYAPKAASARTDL
UniProt Q86V48: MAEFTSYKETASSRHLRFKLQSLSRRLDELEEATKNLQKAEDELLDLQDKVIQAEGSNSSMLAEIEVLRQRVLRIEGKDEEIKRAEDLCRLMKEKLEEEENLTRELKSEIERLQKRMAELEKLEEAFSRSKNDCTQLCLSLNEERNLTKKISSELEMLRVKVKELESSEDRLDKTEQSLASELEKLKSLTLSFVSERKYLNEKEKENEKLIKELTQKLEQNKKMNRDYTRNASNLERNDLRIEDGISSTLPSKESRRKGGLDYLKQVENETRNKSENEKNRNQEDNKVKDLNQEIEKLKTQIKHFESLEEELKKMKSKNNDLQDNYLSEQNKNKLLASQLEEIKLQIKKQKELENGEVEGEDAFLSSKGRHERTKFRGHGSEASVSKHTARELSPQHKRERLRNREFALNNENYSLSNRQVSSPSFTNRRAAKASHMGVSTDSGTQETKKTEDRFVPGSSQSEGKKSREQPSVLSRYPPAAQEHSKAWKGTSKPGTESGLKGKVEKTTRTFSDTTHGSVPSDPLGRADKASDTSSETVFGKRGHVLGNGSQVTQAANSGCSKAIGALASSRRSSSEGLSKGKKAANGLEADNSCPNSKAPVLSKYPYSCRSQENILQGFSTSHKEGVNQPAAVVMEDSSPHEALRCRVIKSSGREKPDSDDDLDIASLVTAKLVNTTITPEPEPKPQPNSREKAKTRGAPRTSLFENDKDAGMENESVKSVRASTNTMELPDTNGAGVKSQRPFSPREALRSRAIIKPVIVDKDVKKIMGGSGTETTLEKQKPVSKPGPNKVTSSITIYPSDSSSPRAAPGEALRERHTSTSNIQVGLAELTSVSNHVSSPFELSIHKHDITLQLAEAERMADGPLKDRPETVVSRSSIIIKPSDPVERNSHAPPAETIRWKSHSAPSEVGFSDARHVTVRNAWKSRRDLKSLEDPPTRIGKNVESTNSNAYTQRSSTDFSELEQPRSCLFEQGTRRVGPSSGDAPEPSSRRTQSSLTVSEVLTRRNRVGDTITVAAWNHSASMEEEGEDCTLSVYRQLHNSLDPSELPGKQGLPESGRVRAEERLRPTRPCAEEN
UniProt O95232: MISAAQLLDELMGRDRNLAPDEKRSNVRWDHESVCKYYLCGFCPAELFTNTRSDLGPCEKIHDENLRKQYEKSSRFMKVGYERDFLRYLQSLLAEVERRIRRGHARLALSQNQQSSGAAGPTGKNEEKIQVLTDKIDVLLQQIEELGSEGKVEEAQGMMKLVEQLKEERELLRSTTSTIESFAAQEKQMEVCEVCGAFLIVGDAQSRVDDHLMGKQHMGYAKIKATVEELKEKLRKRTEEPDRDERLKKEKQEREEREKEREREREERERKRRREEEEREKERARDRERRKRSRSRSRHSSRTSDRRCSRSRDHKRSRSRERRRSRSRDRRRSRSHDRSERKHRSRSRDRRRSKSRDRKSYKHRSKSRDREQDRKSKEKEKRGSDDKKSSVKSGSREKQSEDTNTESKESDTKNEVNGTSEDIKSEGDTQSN
UniProt Q7L5Y9: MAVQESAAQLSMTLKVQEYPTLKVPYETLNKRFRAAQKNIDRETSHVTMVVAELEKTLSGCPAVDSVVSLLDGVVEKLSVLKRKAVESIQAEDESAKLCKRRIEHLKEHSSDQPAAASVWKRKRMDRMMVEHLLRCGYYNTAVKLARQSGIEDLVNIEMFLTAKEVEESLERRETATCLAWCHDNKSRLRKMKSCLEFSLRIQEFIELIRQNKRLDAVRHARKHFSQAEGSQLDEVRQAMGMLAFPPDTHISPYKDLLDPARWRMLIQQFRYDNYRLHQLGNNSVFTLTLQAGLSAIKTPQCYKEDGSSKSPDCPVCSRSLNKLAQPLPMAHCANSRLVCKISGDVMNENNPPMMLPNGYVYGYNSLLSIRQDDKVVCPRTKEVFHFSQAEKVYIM
UniProt O14733: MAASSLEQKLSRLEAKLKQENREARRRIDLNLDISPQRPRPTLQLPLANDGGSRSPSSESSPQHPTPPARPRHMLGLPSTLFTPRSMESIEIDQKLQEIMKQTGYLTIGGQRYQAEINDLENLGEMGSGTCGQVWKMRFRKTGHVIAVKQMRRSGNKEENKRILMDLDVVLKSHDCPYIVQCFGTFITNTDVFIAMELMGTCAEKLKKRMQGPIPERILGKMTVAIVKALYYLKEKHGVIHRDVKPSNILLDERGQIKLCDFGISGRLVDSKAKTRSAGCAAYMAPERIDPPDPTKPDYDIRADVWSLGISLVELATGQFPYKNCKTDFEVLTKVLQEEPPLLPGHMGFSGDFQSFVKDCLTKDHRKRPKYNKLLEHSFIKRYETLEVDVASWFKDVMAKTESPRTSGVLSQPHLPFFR
UniProt Q5VWZ2: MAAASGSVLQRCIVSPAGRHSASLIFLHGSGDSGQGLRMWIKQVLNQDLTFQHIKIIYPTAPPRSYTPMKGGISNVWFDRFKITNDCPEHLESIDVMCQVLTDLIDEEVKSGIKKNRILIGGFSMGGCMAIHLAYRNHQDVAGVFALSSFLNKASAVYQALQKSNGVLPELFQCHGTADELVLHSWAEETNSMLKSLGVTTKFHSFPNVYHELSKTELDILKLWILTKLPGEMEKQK

Experiments:
Experiment in all cases: log2 fold change, soluble protein after heating vs DMSO (PISA); higher = thermal stabilisation; K562 lysate, 10 uM; active = over 0.2 and 3.5 SD of the protein, either way, in both replicates (recomputed)
vemurafenib = compound: CCCS(=O)(=O)Nc1ccc(F)c(C(=O)c2c[nH]c3ncc(-c4ccc(Cl)cc4)cc23)c1F [vemurafenib]
In short: (§1)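 Soluble protein was defined as the supernatant remaining after 21,000xg for 90 min, following pooling of heated aliquots and adjustment to 0.5% NP-40 at 4°C. Before that, crude K562 extract at 1 mg/mL protein in PBS pH 7.4 with 1 mM MgCl2 was treated with 10 μM compound for 30 min and heated for 3 min across 48°C-58°C. Quantification used TMTpro 16plex LC-MS/MS with channel sums equalised, and values are log-two fold changes in thermal stability relative to solvent controls from duplicates.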

[1] = compound: CCCS(=O)(=O)Nc1ccc(F)c(C(=O)c2c[nH]c3ncc(Cl)cc23)c1F
In short: as §1

barasertib = compound: CCN(CCCOc1ccc2c(Nc3cc(CC(=O)Nc4cccc(F)c4)[nH]n3)ncnc2c1)CCOP(=O)(O)O [barasertib]
In short: as §1

[2] = compound: CC[C@@H]1C(=O)N(C)c2cnc(Nc3ccc(C(=O)NC4CCN(C)CC4)cc3OC)nc2N1C1CCCC1
In short: as §1

volasertib = compound: CC[C@@H]1C(=O)N(C)c2cnc(Nc3ccc(C(=O)N[C@H]4CC[C@H](N5CCN(CC6CC6)CC5)CC4)cc3OC)nc2N1C(C)C [volasertib]
In short: as §1

[3] = compound: CCn1c(C(=O)N(C2CC2)C2CC2)cc2c3c(ncn3C)c(Nc3cc(C)n(C)n3)nc21
In short: as §1

[4] = compound: CCn1cc(-c2ccnc3[nH]c(-c4cccc(CN(C)C)c4)cc23)c(-c2ccc(NC(=O)N(C)C)cc2)n1
In short: as §1

[5] = compound: CN1CCC(CNc2ccc3ncc(-c4cccc(OC(F)(F)F)c4)n3n2)CC1
In short: as §1

saracatinib = compound: CN1CCN(CCOc2cc(OC3CCOCC3)c3c(Nc4c(Cl)ccc5c4OCO5)ncnc3c2)CC1 [saracatinib]
In short: as §1

sotrastaurin = compound: CN1CCN(c2nc(C3=C(c4c[nH]c5ccccc45)C(=O)NC3=O)c3ccccc3n2)CC1 [sotrastaurin]
In short: as §1

alvocidib = compound: CN1CC[C@H](c2c(O)cc(O)c3c(=O)cc(-c4ccccc4Cl)oc23)[C@H](O)C1 [alvocidib]
In short: as §1

Tubastatin A = compound: CN1CCc2c(c3ccccc3n2Cc2ccc(C(=O)NO)cc2)C1 [Tubastatin A]
In short: as §1

[6] = compound: CNC(=O)C1=CC=CC=C1NC2=NC(=NC=C2Cl)NC3=C(C=C(C=C3)N4CCOCC4)OC
In short: as §1

defactinib = compound: CNC(=O)c1ccc(Nc2ncc(C(F)(F)F)c(NCc3nccnc3N(C)S(C)(=O)=O)n2)cc1 [defactinib]
In short: as §1

[7] = compound: CNc1nc(-c2ccc3c(N)n[nH]c3c2)cc(N2C[C@@H](C(=O)NC3CCCCC3)CC[C@H]2C)n1
In short: as §1

encorafenib = compound: COC(=O)N[C@@H](C)CNc1nccc(-c2cn(C(C)C)nc2-c2cc(Cl)cc(NS(C)(=O)=O)c2F)n1 [encorafenib]
In short: as §1

[8] = compound: COC(=O)[C@H](CCSC)NC(=O)C1=C(C=C(C=C1)NC[C@H](CS)N)C2=CC=CC=C2
In short: as §1

alisertib = compound: COc1cc(Nc2ncc3c(n2)-c2ccc(Cl)cc2C(c2c(F)cccc2OC)=NC3)ccc1C(=O)O [alisertib]
In short: as §1

[9] = compound: COc1cc2nc(-c3cc(F)ccc3O)nc(N[C@@H]3CNC[C@H]3C(C)(C)O)c2cc1OC
In short: as §1

gefitinib = compound: COc1cc2ncnc(Nc3ccc(F)c(Cl)c3)c2cc1OCCCN1CCOCC1 [gefitinib]
In short: as §1

Measured: log2 fold change

LZTS1 (UniProt Q9Y250)
inactive: vemurafenib -0.047 | [1] -0.034 | barasertib 0.218 | [2] 0.042 | volasertib 0.074 | [3] -0.53 | [4] 0.493 | [5] -0.132 | saracatinib 0 | sotrastaurin -0.116 | alvocidib 0.054 | Tubastatin A 0.326 | [6] -0.037 | defactinib -0.101 | [7] 0.709 | encorafenib -0.071 | [8] 0.001 | alisertib -0.022 | [9] 0.129 | gefitinib -0.08

MARCKSL1 (UniProt P49006)
inactive: vemurafenib -0.012 | [1] -0.029 | barasertib -0.008 | [2] 0.023 | volasertib 0.073 | [3] 0.136 | [4] 0.182 | [5] -0.175 | saracatinib -0.065 | sotrastaurin 0.033 | alvocidib 0.101 | Tubastatin A -0.026 | [6] -0.022 | defactinib 0.208 | [7] -0.052 | encorafenib -0.02 | [8] -0.031 | alisertib -0.04 | [9] 0 | gefitinib 0.04

MAGEC1 (UniProt O60732)
inactive: vemurafenib 0.036 | [1] 0.045 | barasertib 0.062 | [2] 0 | volasertib -0.03 | [3] -0.014 | [4] -0.008 | [5] -0.055 | saracatinib 0.02 | sotrastaurin -0.007 | alvocidib -0.018 | Tubastatin A -0.087 | [6] 0.042 | defactinib 0.006 | [7] -0.034 | encorafenib 0.039 | [8] 0.053 | alisertib -0.01 | [9] -0.029 | gefitinib 0.004

MAP4 (UniProt E7EVA0)
inactive: vemurafenib -0.019 | [1] 0.01 | barasertib 0.04 | [2] 0.125 | volasertib -0.021 | [3] -0.141 | [4] -0.024 | [5] 0.029 | saracatinib 0.024 | sotrastaurin -0.008 | alvocidib -0.074 | Tubastatin A 0.1 | [6] 0 | defactinib 0.01 | [7] 0.037 | encorafenib -0.04 | [8] -0.117 | alisertib -0.028 | [9] 0.054 | gefitinib 0.098

MAN2B1 (UniProt O00754)
inactive: vemurafenib 0.016 | [1] 0.024 | barasertib -0.041 | [2] 0.051 | volasertib 0.038 | [3] 0.009 | [4] 0.047 | [5] 0.011 | saracatinib -0.008 | sotrastaurin 0.08 | alvocidib 0.039 | Tubastatin A 0.008 | [6] -0.014 | defactinib 0.015 | [7] -0.013 | encorafenib 0.016 | [8] -0.027 | alisertib 0.083 | [9] -0.014 | gefitinib 0.083

MAP2K5 (UniProt Q13163)
inactive: vemurafenib 0.207 | [1] 0.302 | barasertib 0.019 | [2] -0.148 | volasertib -0.311 | [3] -0.144 | [4] 0.15 | [5] -0.029 | saracatinib -0.079 | sotrastaurin 0.014 | alvocidib 0.067 | Tubastatin A -0.033 | [6] 0.086 | defactinib -0.026 | [7] 0.329 | encorafenib 0.149 | [8] -0.15 | alisertib -0.016 | [9] 0.054 | gefitinib 0.155

MANBA (UniProt O00462)
inactive: vemurafenib -0.016 | [1] 0.051 | barasertib -0.015 | [2] -0.012 | volasertib -0.052 | [3] -0.003 | [4] -0.038 | [5] 0.066 | saracatinib 0.024 | sotrastaurin 0.015 | alvocidib -0.009 | Tubastatin A -0.005 | [6] 0.008 | defactinib 0.03 | [7] 0.028 | encorafenib 0.03 | [8] -0.048 | alisertib -0.007 | [9] -0.044 | gefitinib 0.027

LYRM7 (UniProt Q5U5X0)
inactive: vemurafenib 0.033 | [1] 0.025 | barasertib 0.027 | [2] -0.026 | volasertib 0.056 | [3] 0.03 | [4] -0.061 | [5] 0.001 | saracatinib 0.013 | sotrastaurin -0.018 | alvocidib 0.046 | Tubastatin A 0.019 | [6] 0.005 | defactinib -0.072 | [7] 0.022 | encorafenib -0.038 | [8] -0.04 | alisertib 0.046 | [9] -0.065 | gefitinib 0.019

MANF (UniProt P55145)
inactive: vemurafenib -0.018 | [1] 0.003 | barasertib 0.004 | [2] 0.015 | volasertib 0.024 | [3] 0 | [4] -0.038 | [5] 0.034 | saracatinib -0.057 | sotrastaurin 0.031 | alvocidib -0.008 | Tubastatin A 0.028 | [6] 0 | defactinib -0.044 | [7] -0.046 | encorafenib -0.006 | [8] -0.083 | alisertib 0.016 | [9] 0.01 | gefitinib 0.005

LUZP1 (UniProt Q86V48)
inactive: vemurafenib 0.037 | [1] 0.003 | barasertib 0.013 | [2] 0.086 | volasertib -0.015 | [3] 0.012 | [4] 0.108 | [5] 0.014 | saracatinib -0.024 | sotrastaurin -0.01 | alvocidib -0.027 | Tubastatin A -0.061 | [6] 0.099 | defactinib -0.056 | [7] 0.004 | encorafenib 0.023 | [8] -0.074 | alisertib -0.014 | [9] 0.012 | gefitinib 0.039

MARK2 (UniProt E9PC69)
inactive: vemurafenib 0.015 | [1] -0.005 | barasertib 0.027 | [2] 0 | volasertib 0.028 | [3] -0.015 | [4] -0.013 | [5] -0.22 | saracatinib 0.021 | sotrastaurin -0.026 | alvocidib -0.032 | Tubastatin A -0.049 | [6] -0.187 | defactinib -0.087 | [7] 0.056 | encorafenib 0.181 | [8] 0.211 | alisertib 0.021 | [9] 0.01 | gefitinib -0.03

LUC7L3 (UniProt O95232)
inactive: vemurafenib 0.023 | [1] 0.003 | barasertib 0.014 | [2] 0.064 | volasertib -0.005 | [3] -0.019 | [4] -0.047 | [5] 0.034 | saracatinib -0.017 | sotrastaurin 0.051 | alvocidib -0.137 | Tubastatin A 0.031 | [6] -0.023 | defactinib -0.032 | [7] 0.064 | encorafenib -0.012 | [8] -0.024 | alisertib -0.024 | [9] 0.009 | gefitinib 0.021

MAF1 (UniProt Q9H063)
inactive: vemurafenib -0.061 | [1] 0.012 | barasertib 0.007 | [2] 0.049 | volasertib -0.011 | [3] 0.071 | [4] 0.097 | [5] 0.029 | saracatinib 0.145 | sotrastaurin -0.016 | alvocidib 0.116 | Tubastatin A -0.144 | [6] -0.01 | defactinib 0.032 | [7] -0.119 | encorafenib -0.011 | [8] -0.028 | alisertib -0.038 | [9] -0.031 | gefitinib -0.035

MAEA (UniProt Q7L5Y9)
inactive: vemurafenib -0.052 | [1] 0.007 | barasertib 0.033 | [2] -0.055 | volasertib -0.029 | [3] 0.024 | [4] 0.04 | [5] 0.02 | saracatinib -0.016 | sotrastaurin -0.004 | alvocidib 0.014 | Tubastatin A -0.076 | [6] 0.032 | defactinib -0.011 | [7] -0.048 | encorafenib -0.024 | [8] 0.042 | alisertib 0 | [9] -0.017 | gefitinib -0.004

Fetched one by one from above (two):
MARK2 (UniProt E9PC69)
inactive: vemurafenib 0.015 | [1] -0.005 | barasertib 0.027 | [2] 0 | volasertib 0.028 | [3] -0.015 | [4] -0.013 | [5] -0.22 | saracatinib 0.021 | sotrastaurin -0.026 | alvocidib -0.032 | Tubastatin A -0.049 | [6] -0.187 | defactinib -0.087 | [7] 0.056 | encorafenib 0.181 | [8] 0.211 | alisertib 0.021 | [9] 0.01 | gefitinib -0.03

MAF1 (UniProt Q9H063)
inactive: vemurafenib -0.061 | [1] 0.012 | barasertib 0.007 | [2] 0.049 | volasertib -0.011 | [3] 0.071 | [4] 0.097 | [5] 0.029 | saracatinib 0.145 | sotrastaurin -0.016 | alvocidib 0.116 | Tubastatin A -0.144 | [6] -0.01 | defactinib 0.032 | [7] -0.119 | encorafenib -0.011 | [8] -0.028 | alisertib -0.038 | [9] -0.031 | gefitinib -0.035

(cont.)

MAP2K7 isoform 4 (UniProt O14733)
inactive: vemurafenib 0.073 | [1] 0.087 | barasertib -0.02 | [2] 0.016 | volasertib -0.04 | [3] 0.042 | [4] 0.004 | [5] -0.02 | saracatinib 0.032 | sotrastaurin 0.02 | alvocidib 0.023 | Tubastatin A -0.15 | [6] 0.023 | defactinib -0.035 | [7] 0.036 | encorafenib -0.059 | [8] 0.177 | alisertib 0.006 | [9] -0.009 | gefitinib -0.08

LYPLAL1 (UniProt Q5VWZ2)
inactive: vemurafenib -0.009 | [1] 0.01 | barasertib 0.068 | [2] 0.022 | volasertib 0.02 | [3] -0.002 | [4] -0.039 | [5] 0.031 | saracatinib -0.019 | sotrastaurin -0.032 | alvocidib 0.008 | Tubastatin A 0.044 | [6] -0.035 | defactinib -0.028 | [7] 0.023 | encorafenib -0.025 | [8] -0.024 | alisertib -0.014 | [9] 0.01 | gefitinib -0.029
